Laboratory results from publication doi:10.1101/038398.
Results are given in words; binding and its absence hold for the method and conditions named. Binding seen in cells or lysates may run through a third protein. Some entries that bind do so weakly or less than the wild type.

Sequences of proteins named here, by UniProt entry; tags and fusion partners are left off.
UniProt P35228: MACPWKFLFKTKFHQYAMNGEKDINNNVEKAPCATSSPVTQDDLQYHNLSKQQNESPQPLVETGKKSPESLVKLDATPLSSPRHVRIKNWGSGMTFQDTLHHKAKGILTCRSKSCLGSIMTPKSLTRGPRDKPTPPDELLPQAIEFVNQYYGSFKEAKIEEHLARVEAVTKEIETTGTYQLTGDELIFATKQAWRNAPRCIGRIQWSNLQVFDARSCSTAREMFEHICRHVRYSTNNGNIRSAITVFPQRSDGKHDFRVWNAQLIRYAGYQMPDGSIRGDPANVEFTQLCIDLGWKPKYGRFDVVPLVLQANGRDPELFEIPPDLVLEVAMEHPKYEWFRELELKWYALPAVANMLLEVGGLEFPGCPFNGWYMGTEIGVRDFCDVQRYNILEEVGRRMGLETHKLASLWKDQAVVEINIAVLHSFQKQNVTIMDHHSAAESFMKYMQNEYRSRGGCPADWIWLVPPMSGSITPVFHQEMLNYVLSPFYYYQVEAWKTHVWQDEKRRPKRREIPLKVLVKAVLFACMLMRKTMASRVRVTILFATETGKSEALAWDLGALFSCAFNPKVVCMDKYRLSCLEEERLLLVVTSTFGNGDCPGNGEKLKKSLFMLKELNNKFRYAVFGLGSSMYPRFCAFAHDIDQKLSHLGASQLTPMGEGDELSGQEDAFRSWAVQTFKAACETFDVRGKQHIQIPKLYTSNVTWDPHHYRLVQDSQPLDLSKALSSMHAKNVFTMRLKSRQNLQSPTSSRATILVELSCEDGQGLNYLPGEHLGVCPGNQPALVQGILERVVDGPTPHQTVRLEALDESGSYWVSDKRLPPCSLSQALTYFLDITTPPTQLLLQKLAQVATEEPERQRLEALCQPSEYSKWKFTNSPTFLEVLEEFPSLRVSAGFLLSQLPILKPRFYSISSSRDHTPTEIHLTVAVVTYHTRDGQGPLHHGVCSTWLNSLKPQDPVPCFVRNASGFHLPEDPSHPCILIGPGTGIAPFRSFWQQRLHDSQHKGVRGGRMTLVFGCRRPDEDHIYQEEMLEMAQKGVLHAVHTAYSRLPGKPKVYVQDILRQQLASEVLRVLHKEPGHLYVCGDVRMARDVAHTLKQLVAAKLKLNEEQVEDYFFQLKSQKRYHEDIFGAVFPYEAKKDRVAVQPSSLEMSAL

Target: iNOS, endogenous in primary human monocytes (human (endogenous in primary human monocytes)) (UniProt P35228)
Assay: proximity ligation

B1: NOSIP, endogenous in primary human monocytes (protein, UniProt Q9Y314 1-301)
chain: MTRHGKNCTAGAVYTYHEKKKDTAASGYGTQNIRLSRDAVKDFDCCCLSLQPCHDPVVTPDGYLYEREAILEYILHQKKEIARQMKAYEKQRGTRREEQKELQRAASQDHVRGFLEKESAIVSRPLNPFTAKALSGTSPDDVQPGPSVGPPSKDKDKVLPSFWIPSLTPEAKATKLEKPSRTVTCPMSGKPLRMSDLTPVHFTPLDSSVDRVGLITRSERYVCAVTRDSLSNATPCAVLRPSGAVVTLECVEKLIRKDMVDPVTGDKLTDRDIIVLQRGGTGFAGSGVKLQAEKSRPVMQA
  binding: binds
